Reference: patent US20250215052A1, “INHIBITORS OF PICK1 AND USES THEREOF” (University of Copenhagen, priority 2018, published 2025)
No constants are given. Whether binding was seen depends on the method and setting. Some entries that bind do so weakly or less than the wild type.

The chains behind the UniProt entries cited, without tags or fusion partners.
UniProt Q9EP80: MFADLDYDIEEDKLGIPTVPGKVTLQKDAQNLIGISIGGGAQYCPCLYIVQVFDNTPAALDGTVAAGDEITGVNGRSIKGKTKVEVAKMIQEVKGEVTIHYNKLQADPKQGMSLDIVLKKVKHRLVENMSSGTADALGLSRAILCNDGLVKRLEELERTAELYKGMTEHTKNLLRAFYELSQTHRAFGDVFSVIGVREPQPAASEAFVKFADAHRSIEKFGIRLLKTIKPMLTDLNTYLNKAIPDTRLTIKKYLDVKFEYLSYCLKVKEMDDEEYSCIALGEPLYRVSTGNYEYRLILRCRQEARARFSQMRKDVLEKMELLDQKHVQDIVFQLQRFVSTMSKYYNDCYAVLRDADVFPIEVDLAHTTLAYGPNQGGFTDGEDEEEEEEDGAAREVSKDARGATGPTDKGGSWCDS

Molecular target: Protein Interacting with C Kinase-1 (PICK1), purified recombinant (UniProt Q9EP80)
Assay: fluorescence polarization competition, tracer 5FAM-DATC5, purified PICK1

binding	Binder
binds	HWIKV [C5 peptide with X3 (P-2) substituted to I (HWIKV)]
binds	HFLKV [C5 peptide with X2 substituted to F (HFLKV)]
binds	HWLRV [C5 peptide with X4 substituted to R (HWLRV)]
binds	IWLKV [C5 peptide with X1 substituted to I (IWLKV)]
binds	AWLKV [C5 peptide with X1 substituted to A (AWLKV)]

Molecular target: Protein Interacting with C Kinase-1 (PICK1), purified recombinant (UniProt Q9EP80)
Assay: fluorescence polarization, purified PICK1 in solution

binding	Binder
binds	RQFTLRHWLKV [DAT-C11]
binds	LRHWLKV [DAT-C7]
binds	RHWLKV [DAT-C6]
binds	VRQFTLRHWLKV [DAT-C12]
binds	TLRHWLKV [DAT-C8]
binds	EVRQFTLRHWLKV [DAT-C13]
binds	QFTLRHWLKV [DAT-C10]
binds	FTLRHWLKV [DAT-C9]
